*: point of attachment. Boc = CC(C)(C)OC(=O)*; tBu = CC(C)(C)*
Experiment: general procedure: solution-phase peptide synthesis; dicyclohexylcarbodiimide/N-hydroxysuccinimide; p-nitrophenyl esters; azide metho
Settings: of theory

Substance | oxidative folding yield (oxidative folding step) | step yield (coupling step)
Boc-CS(tBu)NLS(tBu)T(tBu)CVL-OH (cysteine pairing not given here) | 83% | 
Z-Asn-Leu-Asn-Asn-Phe-NH-NH-BOC |  | 88%

Source: patent US3956260 (dated 1976)
